Results are given in words; binding and its absence hold for the method and conditions named. In cells and extracts the contact can be indirect.
Target: CXCR4-CFP / CXCR4-YFP (human) (UniProt P61073)
Test: FRET or BRET; FLIM (CFP donor lifetime) in live HEK-293T cells transfected with CXCR4-YFP/CXCR4-CFP or 5HTR2B-YFP/CXCR4-CFP (15 µg : 9 µg); CXCR4-CFP alone as reference; untreated or ChOx (25 U/mL, 2 h, 37 °C); without or with CXCL12 (100 nM, 30 min)

Amino acid sequences for entries named in this document (tags omitted).
UniProt P61073: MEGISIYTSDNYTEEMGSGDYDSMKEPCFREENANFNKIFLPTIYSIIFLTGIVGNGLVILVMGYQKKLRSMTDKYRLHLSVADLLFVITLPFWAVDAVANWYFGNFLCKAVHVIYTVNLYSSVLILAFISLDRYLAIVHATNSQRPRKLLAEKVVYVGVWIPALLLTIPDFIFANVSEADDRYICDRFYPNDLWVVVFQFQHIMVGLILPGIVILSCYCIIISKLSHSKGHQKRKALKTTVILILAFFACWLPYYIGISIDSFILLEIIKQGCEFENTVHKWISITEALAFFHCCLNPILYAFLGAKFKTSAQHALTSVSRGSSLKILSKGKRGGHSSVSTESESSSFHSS
UniProt P41595: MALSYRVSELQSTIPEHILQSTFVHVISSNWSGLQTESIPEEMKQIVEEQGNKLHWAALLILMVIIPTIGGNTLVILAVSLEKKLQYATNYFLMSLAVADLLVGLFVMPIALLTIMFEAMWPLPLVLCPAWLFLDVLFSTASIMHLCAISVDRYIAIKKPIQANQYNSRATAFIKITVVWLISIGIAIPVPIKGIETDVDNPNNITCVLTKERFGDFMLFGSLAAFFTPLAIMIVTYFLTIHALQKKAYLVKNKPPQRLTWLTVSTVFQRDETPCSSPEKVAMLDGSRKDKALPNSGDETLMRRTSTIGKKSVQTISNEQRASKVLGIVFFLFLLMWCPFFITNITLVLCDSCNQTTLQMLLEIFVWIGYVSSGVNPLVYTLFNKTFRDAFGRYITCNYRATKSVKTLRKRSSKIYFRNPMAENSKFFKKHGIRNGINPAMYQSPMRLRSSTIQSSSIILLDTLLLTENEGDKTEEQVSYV

Question: “5HTR2B-YFP (from UniProt P41595 1-481) (receptor)” was tested. Which binding did it give?
Answer: no binding
